Our source for the ED50 values is ChEMBL document CHEMBL1121374, “Analgesic narcotic antagonists. 4. 7-Methyl-N-(cycloalkylmethyl)-3-hydroxymorphinan-6-ones and -isomorphinan-6-ones” (1980).

The subject of the experiment is Mus musculus. The experiment can be described thus: Compound was tested for analgesia in mouse writhing assay by subcutaneous administration. Type of experiment: functional. Particulars: sc.

The structures appear in SMILES notation.

For orientation: ED50 means the dose that gives a 50% effect, or the effect in half of the subjects. Read a high ED50 as a need for a large dose. As for `CN1CC[C@]23c4c5ccc(O)c4O[C@H]2[C@@H](O)C=C[C@H]3[C@H]1C5` [MORPHINE], it took a dose of 2.1 µmol/kg to reach the 50% effect level (ED50).
